# Results from cells or extracts need not show a direct contact. For part of these data: Negatives hold for the conditions tested.
# Sequences of proteins named here, by UniProt entry; tags and fusion partners are left off. A change or cut given only in a name is not applied to a line headed by its entry.
# UniProt P43357: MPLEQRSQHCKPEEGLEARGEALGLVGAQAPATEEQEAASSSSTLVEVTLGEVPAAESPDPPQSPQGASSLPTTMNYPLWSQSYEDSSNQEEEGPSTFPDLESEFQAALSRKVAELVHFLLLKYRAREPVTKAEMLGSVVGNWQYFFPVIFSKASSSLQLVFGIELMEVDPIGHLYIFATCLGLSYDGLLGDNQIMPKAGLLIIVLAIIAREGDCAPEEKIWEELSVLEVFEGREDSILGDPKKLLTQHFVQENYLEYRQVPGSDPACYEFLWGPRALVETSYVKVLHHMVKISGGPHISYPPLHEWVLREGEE
# Experiments:
# [1] = target: MAGE-A3 111-125 presented by MHC on cancer cells (Homo sapiens) (UniProt P43357); assay: binding assay; conditions: confocal microscopy, protein on the cell surface, label: Cy3, single-stranded DNA
# [2] = target: MAGE-A3 111-125 presented by MHC on cancer cells (Homo sapiens) (UniProt P43357); assay: flow cytometry; conditions: 400 nM; MCF-7, DLD-1, HepG2, A549, SK-MEL-28, Cal-27, AsPC-1 all positive; confocal also positive, seven normal lines background only (FIG. 3); protein on the cell surface; label: Cy3; single-stranded DNA; variant of Ap52
sequence,measurement,setting,value
AGCACTCAATATTCCC [Cy3-Ap16],binding result,"[1]; SK-MEL-28, MCF-7, Cal-27 positive, HEM-a, MCF-10A, OMF negative, variant of Ap16",binds
ATCATTCGGATGTGTG [Cy3-Ap16-control],binding result,"[1]; SK-MEL-28, background only, variant of Ap16-control",no binding
ATCCAGAGTGACGCAGCAAGCACTCAATATTCCCTGGACACGGTGGCTTAGT [Cy3-Ap52],binding result,[2],binds

# Source: patent US20170183660
